Measurements taken from paper PMC9120942.
No constants are given. Whether binding was seen depends on the method and setting. In cells and extracts the contact can be indirect. Some results given as binding are weak or reduced against the parent protein; the word gives no strength. Values belong to the binder of their own block, whether it stands above or below them.

What was measured:
[1] = molecular target: T1, nuclear protein 1 (NUPR1) (human (293T cells)) (UniProt O60356); assay: co-IP; 293T cell lysate; COPB2 antibody (1-5 ug) with Protein A sepharose, 4 °C for 4 h, washed three times with 1x HNTG buffer, western blot for NUPR1; in turn NUPR1 antibody, blot for COPB2
T1 sequence: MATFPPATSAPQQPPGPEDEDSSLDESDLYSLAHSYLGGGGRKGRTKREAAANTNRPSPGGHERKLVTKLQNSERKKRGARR

[2] = molecular target: T2, coatomer protein complex subunit beta 2 (COPB2) (human (293T cells)) (UniProt P35606); assay: as above
T2 sequence: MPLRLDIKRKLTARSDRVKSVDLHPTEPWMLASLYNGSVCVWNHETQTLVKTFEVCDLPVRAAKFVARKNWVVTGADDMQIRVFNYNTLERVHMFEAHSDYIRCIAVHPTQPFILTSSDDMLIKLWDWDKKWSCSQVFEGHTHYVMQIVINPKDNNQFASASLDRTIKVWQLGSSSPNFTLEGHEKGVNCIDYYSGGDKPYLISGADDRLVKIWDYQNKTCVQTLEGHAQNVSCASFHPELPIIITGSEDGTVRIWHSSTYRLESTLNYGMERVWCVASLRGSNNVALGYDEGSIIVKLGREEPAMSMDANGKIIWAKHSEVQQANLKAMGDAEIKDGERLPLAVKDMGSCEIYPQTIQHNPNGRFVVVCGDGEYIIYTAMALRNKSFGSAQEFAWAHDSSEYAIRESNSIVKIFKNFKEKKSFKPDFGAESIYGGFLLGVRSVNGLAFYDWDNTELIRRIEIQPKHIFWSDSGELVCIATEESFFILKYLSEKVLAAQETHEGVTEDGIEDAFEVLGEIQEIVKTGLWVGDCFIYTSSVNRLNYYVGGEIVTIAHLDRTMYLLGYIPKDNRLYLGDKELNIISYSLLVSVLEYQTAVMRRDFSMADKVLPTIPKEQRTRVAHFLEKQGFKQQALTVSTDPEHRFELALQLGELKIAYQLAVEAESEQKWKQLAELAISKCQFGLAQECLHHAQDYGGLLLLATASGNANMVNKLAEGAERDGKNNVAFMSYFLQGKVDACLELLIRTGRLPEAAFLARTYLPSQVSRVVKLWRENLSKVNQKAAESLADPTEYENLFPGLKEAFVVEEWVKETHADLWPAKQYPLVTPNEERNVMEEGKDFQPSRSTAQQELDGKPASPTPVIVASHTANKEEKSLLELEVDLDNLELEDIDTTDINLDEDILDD

binding [1]: binds
B1: coatomer protein complex subunit beta 2 (COPB2) (protein, UniProt P35606-1 1-906)
chain: T2 sequence

binding [2]: binds
B2: nuclear protein 1 (NUPR1) (protein, UniProt O60356 1-82)
chain: T1 sequence
